According to patent publication US20210324011A1 (University of Washington, published 2021):
No constants are given. Whether binding was seen depends on the method and setting. Some results given as binding are weak or reduced against the parent protein; the word gives no strength. Tags and fused reporters may be left off the sequences shown.

Biological target: DHF119_C6_GFP_anchor
Assay: TIRF microscopy, biotinylated anchor on glass slide, 1.16 uM DHF119-YFP

binding: binds
B1: DHF119-YFP (designed binder, not shown: large carriers)
chain: MGPEDELKRVEKLVKEAEALLIVAKIKGSKRDLEKALRTAEEAAREAVKVLVQALLEGDPEVALRAVELVVRVAELLLRIAKESGSREALLRALIVAEEAAKLAKMVLELAEKQGDPEVALRAVELVVRVAELLLRIAKESGSEEALERALRVAEEAARLAKRVLELAEEQGDPLVAKMAVELVKRVAELLERIARESGSEEAKERAERVREEARELQERVKELREREGLE
